Article PMC5148607

The chains behind the UniProt entries cited, without tags or fusion partners. Where a name states a change or a piece, a line headed by the entry shows the natural chain unless it says otherwise.
UniProt P15056: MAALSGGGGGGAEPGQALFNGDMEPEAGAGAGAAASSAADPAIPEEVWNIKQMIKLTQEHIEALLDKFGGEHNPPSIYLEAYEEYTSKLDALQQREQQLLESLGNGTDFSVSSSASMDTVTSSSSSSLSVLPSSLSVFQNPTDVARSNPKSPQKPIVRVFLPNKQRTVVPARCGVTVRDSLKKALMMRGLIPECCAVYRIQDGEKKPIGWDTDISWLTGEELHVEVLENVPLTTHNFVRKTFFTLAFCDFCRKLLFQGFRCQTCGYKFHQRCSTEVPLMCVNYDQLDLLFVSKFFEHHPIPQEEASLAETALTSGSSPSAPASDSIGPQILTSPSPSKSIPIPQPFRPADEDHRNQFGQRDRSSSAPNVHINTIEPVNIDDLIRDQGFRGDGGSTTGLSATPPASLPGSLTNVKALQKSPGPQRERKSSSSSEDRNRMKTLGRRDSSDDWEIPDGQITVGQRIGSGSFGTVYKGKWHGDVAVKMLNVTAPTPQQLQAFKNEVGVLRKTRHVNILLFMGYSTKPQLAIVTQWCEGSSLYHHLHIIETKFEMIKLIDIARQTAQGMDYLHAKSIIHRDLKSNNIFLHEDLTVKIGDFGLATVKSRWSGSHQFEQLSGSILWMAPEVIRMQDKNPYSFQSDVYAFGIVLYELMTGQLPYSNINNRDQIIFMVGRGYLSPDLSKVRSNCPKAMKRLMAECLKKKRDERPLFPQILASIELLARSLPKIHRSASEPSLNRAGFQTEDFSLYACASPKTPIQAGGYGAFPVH
UniProt P28028: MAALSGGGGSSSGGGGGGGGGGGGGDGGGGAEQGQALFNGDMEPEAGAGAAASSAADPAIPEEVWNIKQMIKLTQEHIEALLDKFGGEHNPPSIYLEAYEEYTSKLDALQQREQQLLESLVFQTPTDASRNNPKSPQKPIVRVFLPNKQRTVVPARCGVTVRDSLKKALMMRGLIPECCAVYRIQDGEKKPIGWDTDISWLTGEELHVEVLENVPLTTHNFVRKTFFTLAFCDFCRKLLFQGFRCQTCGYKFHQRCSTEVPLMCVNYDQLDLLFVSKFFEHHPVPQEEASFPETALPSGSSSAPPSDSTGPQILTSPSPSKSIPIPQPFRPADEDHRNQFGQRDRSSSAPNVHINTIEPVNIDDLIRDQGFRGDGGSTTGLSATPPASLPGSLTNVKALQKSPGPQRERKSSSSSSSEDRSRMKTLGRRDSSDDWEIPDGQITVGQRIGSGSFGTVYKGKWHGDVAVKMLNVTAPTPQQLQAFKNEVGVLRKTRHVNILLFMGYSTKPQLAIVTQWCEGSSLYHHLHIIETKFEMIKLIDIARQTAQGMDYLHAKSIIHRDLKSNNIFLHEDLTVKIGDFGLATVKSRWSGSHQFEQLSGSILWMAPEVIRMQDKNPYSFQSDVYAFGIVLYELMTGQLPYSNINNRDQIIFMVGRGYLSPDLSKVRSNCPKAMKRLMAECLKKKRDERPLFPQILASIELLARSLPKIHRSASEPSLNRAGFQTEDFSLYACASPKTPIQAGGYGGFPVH
UniProt P24610: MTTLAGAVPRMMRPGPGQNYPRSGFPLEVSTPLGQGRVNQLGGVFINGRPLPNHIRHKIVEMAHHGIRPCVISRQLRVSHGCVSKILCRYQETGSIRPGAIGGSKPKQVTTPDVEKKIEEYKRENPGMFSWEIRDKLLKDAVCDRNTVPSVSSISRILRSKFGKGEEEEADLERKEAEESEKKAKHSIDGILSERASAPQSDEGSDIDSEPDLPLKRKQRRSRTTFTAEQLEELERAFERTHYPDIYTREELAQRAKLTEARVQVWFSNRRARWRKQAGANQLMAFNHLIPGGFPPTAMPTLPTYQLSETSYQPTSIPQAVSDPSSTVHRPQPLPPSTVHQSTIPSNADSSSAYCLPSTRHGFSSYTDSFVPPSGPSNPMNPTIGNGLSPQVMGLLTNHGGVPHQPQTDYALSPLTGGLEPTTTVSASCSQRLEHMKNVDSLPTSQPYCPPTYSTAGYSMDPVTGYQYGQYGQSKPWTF
UniProt P47239: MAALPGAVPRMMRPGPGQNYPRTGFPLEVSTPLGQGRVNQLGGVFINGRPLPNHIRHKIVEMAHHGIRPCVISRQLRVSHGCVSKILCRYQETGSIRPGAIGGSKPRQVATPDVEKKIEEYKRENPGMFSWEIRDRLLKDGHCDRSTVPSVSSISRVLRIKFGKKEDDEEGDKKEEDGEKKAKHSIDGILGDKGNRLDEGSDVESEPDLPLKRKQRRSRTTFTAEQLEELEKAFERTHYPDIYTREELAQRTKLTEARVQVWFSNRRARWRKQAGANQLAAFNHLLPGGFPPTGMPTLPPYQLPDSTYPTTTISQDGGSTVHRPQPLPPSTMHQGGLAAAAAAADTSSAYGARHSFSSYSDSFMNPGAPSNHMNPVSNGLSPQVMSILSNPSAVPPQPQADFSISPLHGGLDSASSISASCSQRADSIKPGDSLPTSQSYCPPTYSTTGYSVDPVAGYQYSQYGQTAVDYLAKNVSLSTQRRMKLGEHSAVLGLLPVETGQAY
UniProt P84084: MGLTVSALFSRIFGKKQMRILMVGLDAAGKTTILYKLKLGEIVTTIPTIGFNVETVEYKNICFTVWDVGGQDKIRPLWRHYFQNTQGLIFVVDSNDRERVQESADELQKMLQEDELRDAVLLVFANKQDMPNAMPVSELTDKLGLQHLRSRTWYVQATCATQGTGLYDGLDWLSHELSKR
UniProt P62331: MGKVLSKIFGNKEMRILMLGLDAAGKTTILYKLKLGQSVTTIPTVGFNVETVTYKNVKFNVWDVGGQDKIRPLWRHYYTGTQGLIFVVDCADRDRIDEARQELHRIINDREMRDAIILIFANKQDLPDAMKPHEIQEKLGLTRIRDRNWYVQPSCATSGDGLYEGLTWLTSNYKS

Legend:
[1] = target: CA BRAF (V600E) (transfected, pEFm-V600E) (UniProt P15056); test: affinity purification with mass spectrometry; immunoprecipitation of BRAF from RIPA lysates of C2C12 cells transfected with CA Braf (V600E); SDS-PAGE, in-gel digestion, mass spectrometry
[2] = target: BRAF (endogenous, mouse) (mouse (endogenous in E10.5 limb buds and C2C12)) (UniProt P28028); test: affinity purification with mass spectrometry; immunoprecipitation with an antibody against endogenous BRAF (Sepharose G beads) from RIPA extracts of E10.5 wild type mouse limb buds; SDS-PAGE, in-gel digestion, mass spectrometry
HA-tagged PAX3 = HA-tagged PAX3 (UniProt P24610); test: affinity purification with mass spectrometry; immunoprecipitation of PAX3 from extracts of C2C12 cells transfected with HA-tagged Pax3; mass spectrometry
GST-PAX3 = GST-PAX3 (UniProt P24610); test: affinity purification with mass spectrometry; protein extracts of E10.5 wild type mouse limb buds incubated with GST-PAX3 protein, then immunoprecipitation with an anti-PAX3 antibody; mass spectrometry; only the target purified

Row | Substance | binding [1] | binding [2] | binding (HA-tagged PAX3) | binding (GST-PAX3)
1 | PAX7 (endogenous, mouse) (from UniProt P47239 1-503) | binds | binds |  | 
2 | PAX3 (endogenous, mouse) (from UniProt P24610 1-479) | binds | binds |  | 
3 | BRAF (endogenous, mouse) (from UniProt P28028 1-751) (enzyme) |  |  | binds | binds
4 | ARF5 (from UniProt P84084 1-180) |  |  | binds | binds
5 | ARF6 (ADP ribosylation factor 6) (from UniProt P62331 1-175) |  |  | binds | binds

No constants are given. Whether binding was seen depends on the method and setting. Binding seen in cells or lysates may run through a third protein. A yes stands for co-enrichment or nearness to the bait. Other partners may have been found.
